In article PMC9803661:

Molecular target: T1, Mage-D1 (MAGE family member D1; melanoma-associated antigen D1) (rat (endogenous in E19.5 d EMSCs)) (UniProt Q9ES73)
T1 sequence: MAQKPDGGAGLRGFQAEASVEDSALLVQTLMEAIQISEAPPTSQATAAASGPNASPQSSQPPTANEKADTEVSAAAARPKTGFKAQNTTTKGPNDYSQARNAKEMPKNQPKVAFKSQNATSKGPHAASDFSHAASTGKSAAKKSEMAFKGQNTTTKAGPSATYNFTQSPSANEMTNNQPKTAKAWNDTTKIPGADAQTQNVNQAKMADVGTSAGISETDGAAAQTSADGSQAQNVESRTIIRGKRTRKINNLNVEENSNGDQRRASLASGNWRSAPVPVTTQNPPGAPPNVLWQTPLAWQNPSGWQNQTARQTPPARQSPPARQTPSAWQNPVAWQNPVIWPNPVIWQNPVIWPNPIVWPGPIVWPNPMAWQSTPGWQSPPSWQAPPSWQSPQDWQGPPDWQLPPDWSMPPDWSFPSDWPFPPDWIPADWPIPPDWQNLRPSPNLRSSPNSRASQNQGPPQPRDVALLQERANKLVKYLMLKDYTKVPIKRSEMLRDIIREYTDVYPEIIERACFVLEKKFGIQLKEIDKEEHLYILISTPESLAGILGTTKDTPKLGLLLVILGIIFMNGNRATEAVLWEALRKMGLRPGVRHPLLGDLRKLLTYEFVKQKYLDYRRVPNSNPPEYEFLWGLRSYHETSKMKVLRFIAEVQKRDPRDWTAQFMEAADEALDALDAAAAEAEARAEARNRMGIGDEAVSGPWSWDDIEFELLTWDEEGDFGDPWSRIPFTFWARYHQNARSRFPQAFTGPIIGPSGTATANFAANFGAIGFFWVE
Test: co-IP; magnetic beads with rabbit polyclonal anti-Mage-D1 antibody (2 h), then E19.5 d rat EMSC protein lysate overnight at 4 °C; Western blot for p75NTR, Dlx1, Msx1

Question: Which binding does the source give for “msh homeobox 1 (Msx1) (rat (endogenous in E19.5 d EMSCs))” here?
Answer: binds

These are yes or no findings as the source states them, for the method shown. In cells and extracts the contact can be indirect. Binding can be weak; no strength is given.
